Results as given in the supplement of paper PMC9233669.
Variants at the floor of the assay are shown more often than the library holds them.

Assays:
biotinyl-Trp-oxazolone = assay: self-aminoacylation, catalytic enhancement (BWO) (fold over background); higher = more active; k-Seq, kA / k0A0; sequences stand for … in GGGAAUGGAUCCACAUCUACGAAUUC…UUCACUGCAGACUUGACGAAGCUG
Outline: (§1)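 Each biotinyl-aminoacyl-oxazolone, at 2–1250 μM, was incubated with mutagenized RNA pools (0.43 μM) carrying a 21-nt variable region. The 50 μL reactions contained HEPES/NaCl/KCl/MgCl2/CaCl2 buffer with 5% acetonitrile at pH 6.9–7.0 and ran for 90 minutes at room temperature. After streptavidin capture, RNA was measured by qPCR in triplicate and by Illumina sequencing, and catalytic enhancement was calculated as median kA over the uncatalyzed rate from a pseudo-first-order fit of per-sequence fraction reacted.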

biotinyl-Leu-oxazolone = assay: self-aminoacylation, catalytic enhancement (BLO) (fold over background); higher = more active; k-Seq, kA / k0A0; sequences stand for … in GGGAAUGGAUCCACAUCUACGAAUUC…UUCACUGCAGACUUGACGAAGCUG
Outline: as §1

biotinyl-Val-oxazolone = assay: self-aminoacylation, catalytic enhancement (BVO) (fold over background); higher = more active; k-Seq, kA / k0A0; sequences stand for … in GGGAAUGGAUCCACAUCUACGAAUUC…UUCACUGCAGACUUGACGAAGCUG
Outline: as §1

biotinyl-Ile-oxazolone = assay: self-aminoacylation, catalytic enhancement (BIO) (fold over background); higher = more active; k-Seq, kA / k0A0; sequences stand for … in GGGAAUGGAUCCACAUCUACGAAUUC…UUCACUGCAGACUUGACGAAGCUG
Outline: as §1

biotinyl-Met-oxazolone = assay: self-aminoacylation, catalytic enhancement (BMO) (fold over background); higher = more active; k-Seq, kA / k0A0; sequences stand for … in GGGAAUGGAUCCACAUCUACGAAUUC…UUCACUGCAGACUUGACGAAGCUG
Outline: as §1

biotinyl-Phe-oxazolone = assay: self-aminoacylation, catalytic enhancement (BFO) (fold over background); higher = more active; k-Seq, kA / k0A0; sequences stand for … in GGGAAUGGAUCCACAUCUACGAAUUC…UUCACUGCAGACUUGACGAAGCUG
Outline: as §1

Sequence | self-aminoacylation (biotinyl-Trp-oxazolone) | self-aminoacylation (biotinyl-Leu-oxazolone) | self-aminoacylation (biotinyl-Val-oxazolone) | self-aminoacylation (biotinyl-Ile-oxazolone) | self-aminoacylation (biotinyl-Met-oxazolone) | self-aminoacylation (biotinyl-Phe-oxazolone)
CUCCUUCAAACAACCGGUCUG [Fam1A.1 aminoacylation ribozyme variant] | 1.48 | 0.817 | 0.859 | 1.05 | 0.864 | 1.19
CUGCUUCAAACAAUCGGUCUU [Fam1A.1 aminoacylation ribozyme variant] | 52 | 2.97 | 1.72 | 1.84 | 1.91 | 107
CUGCUUCAAACACUCGGUCUG [Fam1A.1 aminoacylation ribozyme variant] | 0.676 | 1.01 | 1.12 | 0.917 | 1.1 | 0.451
CUGCUUCAAACAGUCGGUCUG [Fam1A.1 aminoacylation ribozyme variant] | 0.692 | 0.951 | 0.837 | 0.804 | 0.764 | 0.936
CUGUUUGCUAAUAGUCGCAAG [Fam3.1 aminoacylation ribozyme variant] | 1.37 | 0.862 | 0.849 | 0.821 | 0.852 | 1.71
CUUCACCUAGGUCAUCGGUUG [Fam2.2 aminoacylation ribozyme variant] | 1.3 | 1.47 | 1.52 | 1.27 | 1.11 | 0.801
CUUCACCUAGUUCAUCGGGUG [Fam2.2 aminoacylation ribozyme variant] | 2.53 | 2.87 | 2.27 | 2.15 | 2.54 | 1.99
CUUCUUCAAACCAUCGGUCUG [Fam1A.1 aminoacylation ribozyme variant] | 0.509 | 0.722 | 0.775 | 0.856 | 0.682 | 0.739
GAGUUUGCUAAUAGUCGCGAG [Fam3.1 aminoacylation ribozyme variant] | 2.17 | 1.47 | 1.38 | 1.55 | 1.63 | 1.76
GAGUUUGCUAAUAGUCGCUAG [Fam3.1 aminoacylation ribozyme variant] | 0.769 | 1.06 | 0.925 | 1.11 | 1.14 | 1.22
GCACACUUCAAGCAAUAGGUC [Fam1B.1 aminoacylation ribozyme variant] | 1.25 | 0.748 | 0.984 | 1 | 0.857 | 1.87
GUACUUCAAACAAUGGGUCUG [Fam1A.1 aminoacylation ribozyme variant] | 1.56 | 1.24 | 1.11 | 1.44 | 1.19 | 1.15
GUUCACCUAGGUCAUCGGGUU [Fam2.2 aminoacylation ribozyme variant] | 9.2 | 17.9 | 6.82 | 7.61 | 13.5 | 51.7
UAGUUUGCUAAUACUCGCAAG [Fam3.1 aminoacylation ribozyme variant] | 1.11 | 0.871 | 0.794 | 0.915 | 0.648 | 1.28
UAGUUUGCUAAUAGUCGCAAA [Fam3.1 aminoacylation ribozyme variant] | 2.06 | 1.53 | 1.38 | 1.95 | 1.75 | 1.58
UCACACUUCAAGCAAUUGGUC [Fam1B.1 aminoacylation ribozyme variant] | 0.841 | 0.734 | 0.788 | 0.682 | 0.597 | 1.32
UUACUUCAAACAAACGGUCUG [Fam1A.1 aminoacylation ribozyme variant] | 1.38 | 1.23 | 1.15 | 1.27 | 1.26 | 1.17
UUUACCCUGGUCAUCGACUGA [Fam2.1 aminoacylation ribozyme variant] | 0.787 | 0.723 | 0.837 | 0.92 | 0.746 | 0.354
UUUCACCUAGGUCAUCGGUUG [Fam2.2 aminoacylation ribozyme variant] | 0.998 | 0.936 | 1.24 | 1.22 | 1.21 | 1.47
UUUGCCCUGGUCAUCGAGUGA [Fam2.1 aminoacylation ribozyme variant] | 46.1 | 41 | 18.1 | 16.5 | 45.5 | 294
